Data as given in PubChem BioAssay AID1259425 (University of Nebraska Medical Center, 2018)

Assay: 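Seek colon cancer weak points whose silencing resembles KSR1 loss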 (primary screen)
Cell system: HCT116 human colon cancer cells
Reagents: siRNA pool against human genes, 50 nM siRNA
Measured: 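After 50 nM siRNA pool, branched-DNA assay measures six marker transcripts per well, minus blank, normalised to the geometric mean of two housekeeping transcripts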
Reading the numbers: BNIP3L mRNA: higher = more BNIP3L transcript after knockdown; NDRG1 mRNA: higher = more NDRG1 transcript after knockdown; BNIP3 mRNA: higher = more BNIP3 transcript after knockdown; ALDOC mRNA: higher = more ALDOC transcript after knockdown; ACSL5 mRNA: higher = more ACSL5 transcript after knockdown
This is one part, drawn at random, of about 14,000 reagents tested. Not stated in the record: the time to read-out.

gene knocked down	BNIP3L mRNA, set 1	NDRG1 mRNA, set 1	BNIP3 mRNA, set 1	ALDOC mRNA, set 1	ACSL5 mRNA, set 1
FXYD4 (GeneID 53828)	0.0942	0.1	0.238	0.0258	0.09
FBP2 (GeneID 8789)	0.122	0.0787	0.161	0.0125	0.0873
HNRNPAB (GeneID 3182)	0.0842	0.18	0.204	0.0232	0.0897
PGBD1 (GeneID 84547)	0.0739	0.369	0.286	0.0317	0.205
PLEKHA8P1 (GeneID 51054)	0.0882	0.09	0.38	0.0229	0.156
NEDD4L (GeneID 23327)	0.0631	0.127	0.232	0.0201	0.207
OGA (GeneID 10724)	0.085	0.169	0.206	0.0261	0.0933
U2AF2 (GeneID 11338)	0.153	0.262	0.255	0.0674	0.0347
SH3BGRL2 (GeneID 83699)	0.144	0.293	0.228	0.0676	0.256
APOBEC3F (GeneID 200316)	0.0484	0.0862	0.308	0.0153	0.0575
TNFSF13B (GeneID 10673)	0.0892	0.104	0.22	0.0212	0.128
GPR160 (GeneID 26996)	0.203	0.205	0.383	0.0589	0.212
VPS33A (GeneID 65082)	0.0909	0.112	0.251	0.00911	0.214
CLUL1 (GeneID 27098)	0.1	0.2	0.306	0.0209	0.226
ZNF32 (GeneID 7580)	0.206	0.19	0.312	0.0944	0.234
LIMD2 (GeneID 80774)	0.0349	0.0831	0.225	0.00523	0.151
KIN (GeneID 22944)	0.135	0.0906	0.345	0.0165	0.204
OGFOD3 (GeneID 79701)	0.153	0.118	0.352	0.0266	0.132
SNRPB2 (GeneID 6629)	0.0937	0.479	0.226	0.0328	0.127
VPS37B (GeneID 79720)	0.0868	0.328	0.314	0.0238	0.146
MEGF10 (GeneID 84466)	0.0874	0.135	0.226	0.0398	0.194
NKX2-1 (GeneID 7080)	0.0698	0.227	0.229	0.0131	0.185
ARID3B (GeneID 10620)	0.109	0.433	0.191	0.00573	0.158
LARP4B (GeneID 23185)	0.113	0.188	0.183	0.0173	0.153
CDC123 (GeneID 8872)	0.0961	0.5	0.245	0.0499	0.273
ING4 (GeneID 51147)	0.106	0.354	0.253	0.00279	0.228
FOXD3 (GeneID 27022)	0.0665	0.125	0.336	0.000437	0.104
XPO6 (GeneID 23214)	0.0997	0.263	0.258	0.03	0.183
TMEM141 (GeneID 85014)	0.0879	0.193	0.355	0.0894	0.191
NDUFAF4 (GeneID 29078)	0.104	0.144	0.199	0.0134	0.105
NELL2 (GeneID 4753)	0.0785	0.248	0.381	0.0163	0.224
PARP4 (GeneID 143)	0.0874	0.167	0.645	0.0124	0.151
AK7 (GeneID 122481)	0.0774	0.268	0.171	0.0132	0.179
TAS1R1 (GeneID 80835)	0.232	0.517	0.448	0.103	0.469
